Results deposited as PubChem BioAssay AID1224829 (NIAID, 2016)
Shown is a random part of about 3,800 reagents tested. 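Calls cover raised and lowered translocation; gene median uses one vendor's three siRNAs; qiagen siRNAs acted more weakly than ambion siRNAs.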 The numbers tell different reagents against one gene apart. Reagent sequences are not shown.

- Test: 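Genes needed for LPS-driven NF-kappaB p65 nuclear entry in mouse macrophages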 (follow-up of hits)
- Cells: mouse RAW264.7 G9 macrophage reporter cells
- Reagent: single siRNA against mouse genes, 100 nM
- Time to read-out: 2 days of siRNA knock-down, then 40 min of LPS before fixing
- Treatment: LPS (Salmonella minnesota R595) at 10 ng/ml
- Measurement: 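High-content images after 40 min LPS exposure; GFP-p65 nucleus to surrounding ring signal ratio, normalised to plate median and non-targeting control wells, expressed as z-score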
- Scale: p65 translocation z-score and gene median z-score, per vendor: higher = more nuclear NF-kappaB p65 after LPS
- Call rule: 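Active means the replicate-mean z-score lies beyond plus or minus 2, in either direction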
- Meaning of the calls: active = changed p65 translocation (either direction); inactive = no clear change

For Nr0b2 (GeneID 23957) #1, siRNA vendor or control pool ambion single siRNA, what does the deposit list?
p65 translocation z-score, replicate mean: -0.0398; p65 translocation z-score, replicate 1: -0.73; p65 translocation z-score, replicate 2: 0.651; gene median z-score, per vendor: -2.6; activity call: inactive

For Nr0b2 (GeneID 23957) #2, siRNA vendor or control pool ambion single siRNA, what was measured?
p65 translocation z-score, replicate mean: -2.82; p65 translocation z-score, replicate 1: -2.82; gene median z-score, per vendor: -2.6; activity call: active

For Nr0b2 (GeneID 23957) #3, siRNA vendor or control pool ambion single siRNA, what does the deposit list?
p65 translocation z-score, replicate mean: -3.35; p65 translocation z-score, replicate 1: -4.1; p65 translocation z-score, replicate 2: -2.6; gene median z-score, per vendor: -2.6; activity call: active

What is on record for Nr0b2 (GeneID 23957) #4, siRNA vendor or control pool qiagen single siRNA?
p65 translocation z-score, replicate mean: -4.01; p65 translocation z-score, replicate 1: -2.56; p65 translocation z-score, replicate 2: -5.46; gene median z-score, per vendor: -5.46; activity call: active

For Nr0b2 (GeneID 23957) #5, siRNA vendor or control pool qiagen single siRNA, what was measured?
p65 translocation z-score, replicate mean: -5.96; p65 translocation z-score, replicate 1: -5.96; gene median z-score, per vendor: -5.46; activity call: active

For Nr0b2 (GeneID 23957) #6, siRNA vendor or control pool qiagen single siRNA, what was measured?
p65 translocation z-score, replicate mean: -3.95; p65 translocation z-score, replicate 1: -1.63; p65 translocation z-score, replicate 2: -6.28; gene median z-score, per vendor: -5.46; activity call: active

With Pabpn1 (GeneID 54196) #1, siRNA vendor or control pool ambion single siRNA, what was measured?
gene median z-score, per vendor: -1.48; activity call: inactive

Which result is listed for Pabpn1 (GeneID 54196) #2, siRNA vendor or control pool ambion single siRNA?
p65 translocation z-score, replicate mean: -2.56; p65 translocation z-score, replicate 1: -3.78; p65 translocation z-score, replicate 2: -1.35; gene median z-score, per vendor: -1.48; activity call: active

For Pabpn1 (GeneID 54196) #3, siRNA vendor or control pool ambion single siRNA, what was measured?
p65 translocation z-score, replicate mean: -1.48; p65 translocation z-score, replicate 1: -1.48; gene median z-score, per vendor: -1.48; activity call: inactive

With Pabpn1 (GeneID 54196) #4, siRNA vendor or control pool qiagen single siRNA, how do the results read?
p65 translocation z-score, replicate mean: -2.53; p65 translocation z-score, replicate 1: -1.52; p65 translocation z-score, replicate 2: -3.55; gene median z-score, per vendor: -1.65; activity call: active

With Pabpn1 (GeneID 54196) #5, siRNA vendor or control pool qiagen single siRNA, how do the results read?
p65 translocation z-score, replicate mean: 2.33; p65 translocation z-score, replicate 1: 1.11; p65 translocation z-score, replicate 2: 3.54; gene median z-score, per vendor: -1.65; activity call: active

How did the screen score Pabpn1 (GeneID 54196) #6, siRNA vendor or control pool qiagen single siRNA?
p65 translocation z-score, replicate mean: -3.78; p65 translocation z-score, replicate 1: -1.78; p65 translocation z-score, replicate 2: -5.79; gene median z-score, per vendor: -1.65; activity call: active

For Csf1 (GeneID 12977) #1, siRNA vendor or control pool ambion single siRNA, what does the deposit list?
p65 translocation z-score, replicate mean: 0.87; p65 translocation z-score, replicate 1: -0.506; p65 translocation z-score, replicate 2: 2.25; gene median z-score, per vendor: -1.83; activity call: inactive

For Csf1 (GeneID 12977) #2, siRNA vendor or control pool ambion single siRNA, how do the results read?
p65 translocation z-score, replicate mean: -2.5; p65 translocation z-score, replicate 1: -1.83; p65 translocation z-score, replicate 2: -3.16; gene median z-score, per vendor: -1.83; activity call: active

For Csf1 (GeneID 12977) #3, siRNA vendor or control pool ambion single siRNA, what was measured?
p65 translocation z-score, replicate mean: -2.98; p65 translocation z-score, replicate 1: -2.98; gene median z-score, per vendor: -1.83; activity call: active

For Csf1 (GeneID 12977) #4, siRNA vendor or control pool qiagen single siRNA, how do the results read?
p65 translocation z-score, replicate mean: -0.16; p65 translocation z-score, replicate 1: -0.636; p65 translocation z-score, replicate 2: 0.316; gene median z-score, per vendor: -0.75; activity call: inactive

With Csf1 (GeneID 12977) #5, siRNA vendor or control pool qiagen single siRNA, what was measured?
p65 translocation z-score, replicate mean: -1.18; p65 translocation z-score, replicate 1: -2.58; p65 translocation z-score, replicate 2: 0.213; gene median z-score, per vendor: -0.75; activity call: inactive

With Csf1 (GeneID 12977) #6, siRNA vendor or control pool qiagen single siRNA, how do the results read?
p65 translocation z-score, replicate mean: -1.05; p65 translocation z-score, replicate 1: -0.865; p65 translocation z-score, replicate 2: -1.23; gene median z-score, per vendor: -0.75; activity call: inactive

For Nanp (GeneID 67311) #1, siRNA vendor or control pool ambion single siRNA, what was measured?
p65 translocation z-score, replicate mean: 1.43; p65 translocation z-score, replicate 1: 1.54; p65 translocation z-score, replicate 2: 1.31; gene median z-score, per vendor: -1.81; activity call: inactive

With Nanp (GeneID 67311) #2, siRNA vendor or control pool ambion single siRNA, what was measured?
p65 translocation z-score, replicate mean: -2.36; p65 translocation z-score, replicate 1: -1.81; p65 translocation z-score, replicate 2: -2.92; gene median z-score, per vendor: -1.81; activity call: active

Which result is listed for Nanp (GeneID 67311) #3, siRNA vendor or control pool ambion single siRNA?
p65 translocation z-score, replicate mean: -2.99; p65 translocation z-score, replicate 1: -2.99; gene median z-score, per vendor: -1.81; activity call: active

For Nanp (GeneID 67311) #4, siRNA vendor or control pool qiagen single siRNA, how do the results read?
p65 translocation z-score, replicate mean: -1.53; p65 translocation z-score, replicate 1: -1.59; p65 translocation z-score, replicate 2: -1.48; gene median z-score, per vendor: -1.97; activity call: inactive

With Nanp (GeneID 67311) #5, siRNA vendor or control pool qiagen single siRNA, how do the results read?
p65 translocation z-score, replicate mean: -3.17; p65 translocation z-score, replicate 1: -4.36; p65 translocation z-score, replicate 2: -1.97; gene median z-score, per vendor: -1.97; activity call: active

Which result is listed for Nanp (GeneID 67311) #6, siRNA vendor or control pool qiagen single siRNA?
p65 translocation z-score, replicate mean: -4.31; p65 translocation z-score, replicate 1: -4.31; gene median z-score, per vendor: -1.97; activity call: active

With Flvcr1 (GeneID 226844) #1, siRNA vendor or control pool qiagen single siRNA, what was measured?
p65 translocation z-score, replicate mean: 2.45; p65 translocation z-score, replicate 1: 1.32; p65 translocation z-score, replicate 2: 3.57; gene median z-score, per vendor: 1.27; activity call: active

How did the screen score Flvcr1 (GeneID 226844) #2, siRNA vendor or control pool qiagen single siRNA?
p65 translocation z-score, replicate mean: 1.37; p65 translocation z-score, replicate 1: 1.21; p65 translocation z-score, replicate 2: 1.53; gene median z-score, per vendor: 1.27; activity call: inactive

With Flvcr1 (GeneID 226844) #3, siRNA vendor or control pool qiagen single siRNA, how do the results read?
p65 translocation z-score, replicate mean: -3.03; p65 translocation z-score, replicate 1: -2.44; p65 translocation z-score, replicate 2: -3.62; gene median z-score, per vendor: 1.27; activity call: active

Which result is listed for Taf12 (GeneID 66464) #1, siRNA vendor or control pool ambion single siRNA?
p65 translocation z-score, replicate mean: -1.21; p65 translocation z-score, replicate 1: -2.86; p65 translocation z-score, replicate 2: 0.429; gene median z-score, per vendor: -1.96; activity call: inactive

With Taf12 (GeneID 66464) #2, siRNA vendor or control pool ambion single siRNA, how do the results read?
p65 translocation z-score, replicate mean: -2.98; p65 translocation z-score, replicate 1: -3.17; p65 translocation z-score, replicate 2: -2.78; gene median z-score, per vendor: -1.96; activity call: active

How did the screen score Taf12 (GeneID 66464) #3, siRNA vendor or control pool ambion single siRNA?
p65 translocation z-score, replicate mean: -0.862; p65 translocation z-score, replicate 1: -0.595; p65 translocation z-score, replicate 2: -1.13; gene median z-score, per vendor: -1.96; activity call: inactive

Ordered by “p65 translocation z-score, replicate mean” (descending): some entries from above.
Nr0b2 (GeneID 23957) #6, siRNA vendor or control pool qiagen single siRNA — p65 translocation z-score, replicate mean = -3.95; p65 translocation z-score, replicate 1 = -1.63; p65 translocation z-score, replicate 2 = -6.28; gene median z-score, per vendor = -5.46; activity call = active
Nr0b2 (GeneID 23957) #4, siRNA vendor or control pool qiagen single siRNA — p65 translocation z-score, replicate mean = -4.01; p65 translocation z-score, replicate 1 = -2.56; p65 translocation z-score, replicate 2 = -5.46; gene median z-score, per vendor = -5.46; activity call = active
Nr0b2 (GeneID 23957) #5, siRNA vendor or control pool qiagen single siRNA — p65 translocation z-score, replicate mean = -5.96; p65 translocation z-score, replicate 1 = -5.96; gene median z-score, per vendor = -5.46; activity call = active
